Assay results from article PMC5941273, “DNA-binding miniproteins based on zinc fingers. Assessment of the interaction using nanopores† †Electronic supplementary information (ESI) available. See DOI: 10.1039/c7sc05441f”.
Construct, isoform or probe ends are uncertain for at least one entry. For part of these data: No signal at the amounts used counts as a negative. A weaker result is weaker than the reference pair of the same experiment.

Amino acid sequences for entries named in this document (tags omitted). A change or cut given only in a name is not applied to a line headed by its entry.
UniProt Q08605: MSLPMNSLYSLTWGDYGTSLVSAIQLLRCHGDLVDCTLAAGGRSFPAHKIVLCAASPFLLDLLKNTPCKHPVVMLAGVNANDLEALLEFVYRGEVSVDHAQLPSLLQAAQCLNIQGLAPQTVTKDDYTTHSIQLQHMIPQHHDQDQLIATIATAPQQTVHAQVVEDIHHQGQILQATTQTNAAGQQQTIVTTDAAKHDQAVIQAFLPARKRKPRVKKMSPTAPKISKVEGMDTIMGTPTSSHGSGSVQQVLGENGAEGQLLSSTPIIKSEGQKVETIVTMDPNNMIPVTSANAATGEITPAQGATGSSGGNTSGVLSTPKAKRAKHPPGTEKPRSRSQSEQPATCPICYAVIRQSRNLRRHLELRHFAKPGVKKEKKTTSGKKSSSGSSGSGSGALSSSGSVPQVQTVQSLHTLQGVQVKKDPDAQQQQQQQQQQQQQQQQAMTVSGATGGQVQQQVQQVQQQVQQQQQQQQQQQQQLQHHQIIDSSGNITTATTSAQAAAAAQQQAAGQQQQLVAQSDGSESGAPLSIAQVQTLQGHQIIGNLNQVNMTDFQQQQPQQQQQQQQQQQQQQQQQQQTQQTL

Tests used:
gaga-Hk [1] = target: gaga-Hk (UniProt Q08605); experiment: EMSA; settings: Zn2+, EMSA: 18 mM Tris-HCl pH 7.5, 90 mM KCl, 1.8 mM MgCl2, 0.2 mM TCEP, 9% glycerol, 0.11 mg/mL BSA, 2.2% NP-40, 0.02 mM ZnCl2, 20 C, 75 nM DNA
Hk-gaga [2] = target: Hk-gaga (UniProt Q08605); experiment: EMSA; settings: Zn2+, EMSA: 18 mM Tris-HCl pH 7.5, 90 mM KCl, 1.8 mM MgCl2, 0.2 mM TCEP, 9% glycerol, 0.11 mg/mL BSA, 2.2% NP-40, 0.02 mM ZnCl2, 20 C, 75 nM DNA
gaga-Hk-gaga = gaga-Hk-gaga (UniProt Q08605); experiment: EMSA; settings: Zn2+, EMSA: 18 mM Tris-HCl pH 7.5, 90 mM KCl, 1.8 mM MgCl2, 0.2 mM TCEP, 9% glycerol, 0.11 mg/mL BSA, 2.2% NP-40, 0.02 mM ZnCl2, 20 C, 75 nM DNA
gaga-Hk [3] = target: gaga-Hk (UniProt Q08605); experiment: fluorescence anisotropy; settings: 50 uM bp calf thymus DNA, Zn2+; FA: 20 mM Tris-HCl pH 7.5, 100 mM NaCl, 0.02 mM ZnCl2, 20 C, 25 nM DNA; label: 5'-TMR
Hk-gaga [4] = target: Hk-gaga (UniProt Q08605); experiment: fluorescence anisotropy; settings: 50 uM bp calf thymus DNA, Zn2+; FA: 20 mM Tris-HCl pH 7.5, 100 mM NaCl, 0.02 mM ZnCl2, 20 C, 25 nM DNA; label: 5'-TMR

Sequence | binding result (gaga-Hk [1]) | binding result (Hk-gaga [2]) | binding result (gaga-Hk-gaga) | other results
CGCGTCATCAGCGAGAGCGC (double strand) [cg·GAG] | binds more weakly | binds more weakly |  | 
CGCGTCATAATTGAGAGCGC (double strand) [AT·GAG (= cat·AT·GAG)] | binds | binds |  | binding result (gaga-Hk-gaga; 1000 nM): binds more weakly
CGCGTCATAATTCGCGACGC (double strand) [AT·cgc (= cat·AT·cgc)] |  |  |  | binding result (gaga-Hk-gaga; up to 1000 nM): no binding; binding result (gaga-Hk [1]; up to 1000 nM): no binding; binding result (Hk-gaga [2]; up to 1000 nM): no binding
GAGCTCTCAATTGAGAGCGCG (double strand) [CTC·AT·GAG] |  |  | binds | 
GGTTCTCTCGACCGAGAGTTGG (double strand) [CTC·gc·GAG] |  |  | binds more weakly | 
CGCGTCATCAGCGAGAGCGC (double strand) [TMR-cg·GAG] |  |  |  | binding result (gaga-Hk [3]): binds more weakly; binding result (Hk-gaga [4]): binds more weakly
